# Primary screen of a compound library

The chains behind the UniProt entries cited, without tags or fusion partners. Residues count along the entry.
UniProt I6X8D2, whole entry: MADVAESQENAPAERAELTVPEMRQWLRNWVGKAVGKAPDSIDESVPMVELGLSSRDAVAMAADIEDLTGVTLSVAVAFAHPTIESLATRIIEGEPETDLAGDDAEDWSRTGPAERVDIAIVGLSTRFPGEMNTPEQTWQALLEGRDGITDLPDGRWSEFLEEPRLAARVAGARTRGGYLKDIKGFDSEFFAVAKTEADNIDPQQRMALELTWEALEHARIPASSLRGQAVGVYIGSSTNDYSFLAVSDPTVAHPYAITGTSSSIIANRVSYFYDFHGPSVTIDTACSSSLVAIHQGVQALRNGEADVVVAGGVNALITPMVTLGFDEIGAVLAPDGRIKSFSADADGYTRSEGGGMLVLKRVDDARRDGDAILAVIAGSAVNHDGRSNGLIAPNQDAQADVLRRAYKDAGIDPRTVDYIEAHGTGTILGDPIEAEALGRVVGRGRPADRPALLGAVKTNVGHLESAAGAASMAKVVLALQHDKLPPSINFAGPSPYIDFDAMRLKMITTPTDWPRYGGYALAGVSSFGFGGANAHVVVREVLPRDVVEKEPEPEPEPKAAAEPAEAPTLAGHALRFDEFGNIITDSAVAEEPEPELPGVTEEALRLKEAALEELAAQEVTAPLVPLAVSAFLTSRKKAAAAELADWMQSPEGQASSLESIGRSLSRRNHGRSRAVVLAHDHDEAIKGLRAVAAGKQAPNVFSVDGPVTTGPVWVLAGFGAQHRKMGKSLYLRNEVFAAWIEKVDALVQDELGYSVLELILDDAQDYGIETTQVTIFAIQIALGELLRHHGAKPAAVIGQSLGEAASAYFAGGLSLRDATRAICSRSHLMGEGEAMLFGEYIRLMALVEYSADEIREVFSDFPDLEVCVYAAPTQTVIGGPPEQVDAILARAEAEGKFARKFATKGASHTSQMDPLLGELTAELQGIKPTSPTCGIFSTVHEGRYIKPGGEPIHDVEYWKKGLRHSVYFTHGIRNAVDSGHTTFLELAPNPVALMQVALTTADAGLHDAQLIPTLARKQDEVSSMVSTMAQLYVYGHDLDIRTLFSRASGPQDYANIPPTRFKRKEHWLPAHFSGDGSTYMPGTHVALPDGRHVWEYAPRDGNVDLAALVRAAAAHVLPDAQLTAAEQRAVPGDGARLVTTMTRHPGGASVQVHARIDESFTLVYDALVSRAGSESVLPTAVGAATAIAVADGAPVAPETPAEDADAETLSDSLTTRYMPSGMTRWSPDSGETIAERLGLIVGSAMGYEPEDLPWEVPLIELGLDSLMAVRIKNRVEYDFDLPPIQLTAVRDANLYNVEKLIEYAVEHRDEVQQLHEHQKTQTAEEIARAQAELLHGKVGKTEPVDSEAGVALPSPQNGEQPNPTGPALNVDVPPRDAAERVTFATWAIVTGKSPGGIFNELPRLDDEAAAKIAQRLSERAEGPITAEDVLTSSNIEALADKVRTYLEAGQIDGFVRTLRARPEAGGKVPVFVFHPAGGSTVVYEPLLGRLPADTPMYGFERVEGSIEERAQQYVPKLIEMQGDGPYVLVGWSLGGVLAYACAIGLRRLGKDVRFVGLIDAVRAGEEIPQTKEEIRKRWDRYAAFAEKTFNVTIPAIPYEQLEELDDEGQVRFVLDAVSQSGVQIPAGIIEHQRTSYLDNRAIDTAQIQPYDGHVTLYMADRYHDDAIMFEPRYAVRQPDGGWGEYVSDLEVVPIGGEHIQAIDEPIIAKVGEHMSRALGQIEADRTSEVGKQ
UniProt A4I591, 1-473: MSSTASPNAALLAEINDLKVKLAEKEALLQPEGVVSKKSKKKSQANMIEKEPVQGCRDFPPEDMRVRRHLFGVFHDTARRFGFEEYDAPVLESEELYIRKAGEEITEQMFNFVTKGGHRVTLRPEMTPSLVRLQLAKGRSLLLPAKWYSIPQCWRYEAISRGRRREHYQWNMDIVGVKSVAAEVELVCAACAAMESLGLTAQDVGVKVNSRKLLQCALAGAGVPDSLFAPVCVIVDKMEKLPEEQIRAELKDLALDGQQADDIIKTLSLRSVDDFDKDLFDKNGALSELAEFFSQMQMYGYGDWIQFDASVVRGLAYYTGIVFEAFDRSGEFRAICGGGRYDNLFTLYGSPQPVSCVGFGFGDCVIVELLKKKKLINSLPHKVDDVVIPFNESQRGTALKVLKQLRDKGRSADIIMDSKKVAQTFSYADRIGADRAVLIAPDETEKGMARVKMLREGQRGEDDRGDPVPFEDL
UniProt P9WNZ1, whole entry: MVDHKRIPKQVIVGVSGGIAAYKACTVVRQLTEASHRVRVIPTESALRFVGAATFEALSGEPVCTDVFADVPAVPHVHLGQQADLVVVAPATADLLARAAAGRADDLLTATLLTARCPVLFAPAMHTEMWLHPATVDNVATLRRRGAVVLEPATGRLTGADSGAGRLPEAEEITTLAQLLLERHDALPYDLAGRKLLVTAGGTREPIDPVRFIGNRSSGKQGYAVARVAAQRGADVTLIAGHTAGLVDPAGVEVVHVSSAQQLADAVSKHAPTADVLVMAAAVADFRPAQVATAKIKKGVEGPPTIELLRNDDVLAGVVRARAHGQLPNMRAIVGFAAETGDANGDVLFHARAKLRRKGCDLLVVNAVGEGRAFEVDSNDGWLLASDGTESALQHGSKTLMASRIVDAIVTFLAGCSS

Values are the deposited “Percent Effect”, in %. The controls that fix the scale are not given in the record; negative values are as filed. Compounds were drawn at random from those tested, without regard to their results. A dash means the value is not listed here; it may have been measured.

Pks13 thioesterase: 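Enzyme assay of the thioesterase domain of polyketide synthase 13; the read-out is not stated. Target: Polyketide synthase Pks13, Mycobacterium tuberculosis (UniProt I6X8D2). Concentration: 30 µM. The record gives no direction; the compounds picked for IC50 retests had high values, so higher reads as stronger inhibition. Of about 67,000 compounds tested this way, about 300 (0.46%) reached 50% or more in at least one test.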
LiHisRS: 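Histidine-tRNA ligase, Leishmania infantum (UniProt A4I591). Enzyme assay of histidyl-tRNA synthetase; the read-out is not stated. Compounds at 30 µM. Direction is inferred from retests: higher values go with stronger inhibition. The assay is labelled LdHisRS but filed under L. infantum. Size under these conditions: about 69,000 compounds, about 410 of them at 50% or above in at least one test.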
CoaBC: 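Coenzyme A biosynthesis protein CoaBC, Mycobacterium tuberculosis (UniProt P9WNZ1). Enzyme assay of CoaBC with a phosphate dye (Biomol Green) read at 650 nm. Tested at 30 µM. Direction is inferred from only a few compounds that gave an IC50; most scored high, so higher reads as stronger inhibition. Most strong results did not repeat in a second test. Size under these conditions: about 67,000 compounds, about 40 of them at 50% or above in at least one test.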

| Compound | Pks13 thioesterase | LiHisRS | CoaBC |
|---|---|---|---|
| `O=C(c1cccc2c1OCO2)N1CCCC(n2cccn2)C1` (centres undefined) | -7.274 | 9.524 | 1.305 |
| `Cc1ccc(C(NCC(=O)N2CCNC(=O)C2)C(F)(F)F)cc1` (centres undefined) | -14.52 | 22.22 | 2.177 |
| `CC(C)c1nc(CN2CCCCC2)cs1` | -14.96 | 0 | 10.51 |
| `N#Cc1cc(C#N)c(SCC(=O)Nc2ccc(F)cc2)nc1N` | 65.25 | 14.16 | -8.381 |
| `CC(C)NC(=O)N1CCC[C@H]1C(=O)NCCCc1cccc(F)c1` | -11.41 | 8.333 | 5.357 |
| `CCc1c(C)nn(CCNC(=O)Cc2csc(C)n2)c1C` | 5.973 | 9.836 | 1.023 |
| `Cc1nccn1C1(C(=O)O)CCN(Cc2ccc3occc3c2)CC1` | -16.45 | 5.479 | 12.27 |
| `CN1CCC/C1=N\S(=O)(=O)c1ccc(NC(=O)c2ccc(F)cc2)cc1` | 0.5322 | 15.62 | 0.2635 |
| `Cc1ccc(NCCCNC(=O)NCC2CCS(=O)(=O)C2)nc1` (centres undefined) | -23.29 | 19.05 | 6.483 |
| `O=C(NCc1nnc2n1CCCC2)N(Cc1ccccc1F)C1CC1` | -15.16 | 19.23 | -2.772 |
| `C1CCC(NCC2(N3CCOCC3)CCSC2)C1` (centres undefined) | -15.93 | 8 | -5.61 |
| `CN(Cc1cccc(C(=O)Nc2ccnn2C)c1)CC1(C)COC1` | -17.22 | 24.66 | 10.02 |
| `COCC1CN(Cc2cccnc2OC)Cc2cnn(C)c21` (centres undefined) | -1.057 | 16.81 | 13.68 |
| `Cc1cnn(CC2CN(Cc3nnc(C4CC4)o3)CCO2)c1` (centres undefined) | -7.173 | 3.077 | 5.396 |
| `CCc1cn[nH]c1C1CCN(C(=O)c2cccc(O)c2C)CC1` | -31.71 | 5.759 | 7.826 |
| `CN(C)CCC(Nc1nc(N)nc2c1CCNCC2)c1ccccc1` (centres undefined) | -1.914 | 10.84 | 2.405 |
| `CCc1csc(CNCC(=O)Nc2ccc(Cl)c(C)c2)n1` | -24.54 | 13.16 | 4.435 |
| `O=C(CN1CC(c2nc(C3CC3)no2)C1)NCc1ccc(F)cc1` | -0.2664 | 17.33 | -2.584 |
| `Cc1ccccc1[C@@H]1CN(CCCS(=O)(=O)N(C)C)C[C@H]1C(=O)O` | 2.469 | 5.882 | -0.8589 |
| `O=C([C@H]1CC[C@@H]2[C@@H](CCN2Cc2nccs2)O1)N1CCOCC1` | -20.55 | 15.6 | 7.294 |
| `O=C(COC1CCCC1)N1CCC(C(O)c2ccc(F)cc2)CC1` (centres undefined) | -29.06 | 5.759 | 0.4348 |
| `Cc1nc2ccccc2nc1CN1CCCC1Cn1cccn1` (centres undefined) | 20.38 | 16.53 | 7.991 |
| `c1cncc(CN2CCn3cc(CN4CCCCC4)nc3C2)c1` | - | 13.86 | 2.104 |
| `O=C(c1cscn1)N1CC[C@@H]2[C@@H]1CCN2C1CCOC1` (some centres undefined) | 6.005 | 5.66 | 2.683 |
| `COCCNc1nc(C)nc2c1CCN(C[C@H]1CC[C@@H](N)CC1)CC2` | 32.95 | 15.66 | -1.882 |
| `Cc1cc(C)n(CC2CCCN2Cc2c(C)noc2C)n1` (centres undefined) | - | 19.05 | -1.305 |
| `O=C(c1cccnc1-n1cncn1)N1CCC(Nc2ccccc2)CC1` | - | 12.33 | -2.564 |
| `O=C(NCCn1ccc(-c2ccncc2)n1)C1CC1` | -7.171 | 12.82 | 2.036 |
| `CCN1C(=O)C2(CCOCC2)c2cc(NC(=O)c3cnccn3)ccc21` | -27.07 | 31.51 | 3.426 |
| `O=C(Cc1cccc(O)c1)NC1CCN(c2cccc(Cl)c2)C1` (centres undefined) | -7.88 | -4.167 | 0.7212 |
| `Cc1cc(C)n(CC(=O)N2CCC(Nc3cccnn3)CC2)n1` | 1.266 | 0 | 3.069 |
| `Cc1nc(N2CCOCC2)nc(C)c1NS(=O)(=O)c1ccccc1` | -26.95 | 5.217 | 5.285 |
| `CC(C)N1CCCC(CNC(=O)Cc2csc(-c3cccnc3)n2)C1` (centres undefined) | - | 10.53 | -10.89 |
| `COCCC(=O)N1CCCC(c2nc(O)cc(-c3ccncc3)n2)C1` (centres undefined) | -26.94 | -1.042 | -1.961 |
| `Cc1cccc(-c2noc([C@@H]3C[C@@H](O)CN3C3CCOCC3)n2)c1` | - | 6.757 | -4.636 |
| `CN(Cc1noc(C(C)(C)C)n1)Cc1ccccc1N1CCCCC1` | 1.501 | 3.529 | 2.03 |
| `Cc1oc(C)c(C(=O)NCc2cccnc2N(C)C)c1C` | -2.583 | 7.2 | 1.064 |
| `Cc1cc(CN2C[C@H](OCC3CCOCC3)[C@H]3COC[C@H]32)oc1C` | -8.232 | 3.846 | 1.818 |
| `Cc1nc(CN2CCN(C(=O)C(C(C)C)n3cncn3)CC2)cs1` (centres undefined) | -9.015 | 10.59 | 4.061 |
| `CCOCCC(=O)Nc1cccc(Oc2ccccn2)c1` | -35.32 | -5.714 | 2.024 |

The first 2 entries again:

* O=C(c1cccc2c1OCO2)N1CCCC(n2cccn2)C1 (centres undefined) | Pks13 thioesterase: -7.274%; LiHisRS: 9.524%; CoaBC: 1.305%
* Cc1ccc(C(NCC(=O)N2CCNC(=O)C2)C(F)(F)F)cc1 (centres undefined) | Pks13 thioesterase: -14.52%; LiHisRS: 22.22%; CoaBC: 2.177%

From ChEMBL document CHEMBL3988442, “University of Dundee, Small-Polar-MMV Screening Library” (2021).